Values quoted from earlier work in patent US20130289019A1, “METHODS OF TREATING BEHAVIORIAL AND/OR MENTAL DISORDERS” (AMAZING GRACE, INC., priority 2012, published 2013).

Sequences of proteins named here, by UniProt entry; tags and fusion partners are left off.
UniProt P20309, whole entry: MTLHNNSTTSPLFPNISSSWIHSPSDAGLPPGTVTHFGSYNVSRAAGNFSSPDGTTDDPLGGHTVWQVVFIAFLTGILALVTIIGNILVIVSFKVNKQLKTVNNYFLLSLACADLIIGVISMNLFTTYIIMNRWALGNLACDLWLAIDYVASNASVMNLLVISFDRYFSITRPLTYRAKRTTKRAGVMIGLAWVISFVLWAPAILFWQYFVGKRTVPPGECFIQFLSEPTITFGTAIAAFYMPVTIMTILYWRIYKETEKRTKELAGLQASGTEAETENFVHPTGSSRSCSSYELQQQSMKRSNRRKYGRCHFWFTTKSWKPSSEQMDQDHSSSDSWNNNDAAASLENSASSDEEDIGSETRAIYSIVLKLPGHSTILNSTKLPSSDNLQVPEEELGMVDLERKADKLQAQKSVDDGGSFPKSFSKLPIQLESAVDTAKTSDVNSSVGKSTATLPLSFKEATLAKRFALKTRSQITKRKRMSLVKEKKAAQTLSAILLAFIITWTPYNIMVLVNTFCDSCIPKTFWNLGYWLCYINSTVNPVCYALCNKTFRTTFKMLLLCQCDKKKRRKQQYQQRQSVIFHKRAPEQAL

Molecular target: M3 receptors (Homo sapiens, UniProt P20309)
Conditions: Billard et al. 1995; cited from earlier work

For `CN1[C@@H]2C[C@@H](OC(=O)[C@H](CO)c3ccccc3)C[C@H]1[C@@H]1O[C@@H]12` [Scopolamine], the Ki is given as 0.063 nM.
